We go through one molecule from doi:10.1101/2025.05.30.657104.

These are yes or no findings as the source states them, for the method shown. In cells and extracts the contact can be indirect. Here binding means that the protein was enriched with, or labelled near, the bait; the list need not be complete. For some assays here: No binding means not detected with the bait.

Experiment [1] deals with Protein kinase C alpha (PKCα) WT (human) (UniProt P17252). The experiment is described as follows: affinity purification with mass spectrometry.
Experiment [2] concerns the target Protein kinase C alpha D463H (PKCα_(D463H)) (human) (UniProt P17252). The experiment is described as follows: affinity purification with mass spectrometry.

B1: GIT2 (protein, UniProt Q14161 1-759)
chain: MSKRLRSSEVCADCSGPDPSWASVNRGTFLCDECCSVHRSLGRHISQVRHLKHTPWPPTLLQMVETLYNNGANSIWEHSLLDPASIMSGRRKANPQDKVHPNKAEFIRAKYQMLAFVHRLPCRDDDSVTAKDLSKQLHSSVRTGNLETCLRLLSLGAQANFFHPEKGNTPLHVASKAGQILQAELLAVYGADPGTQDSSGKTPVDYARQGGHHELAERLVEIQYELTDRLAFYLCGRKPDHKNGQHFIIPQMADSSLDLSELAKAAKKKLQSLSNHLFEELAMDVYDEVDRRETDAVWLATQNHSALVTETTVVPFLPVNPEYSSTRNQGRQKLARFNAHEFATLVIDILSDAKRRQQGSSLSGSKDNVELILKTINNQHSVESQDNDQPDYDSVASDEDTDLETTASKTNRQKSLDSDLSDGPVTVQEFMEVKNALVASEAKIQQLMKVNNNLSDELRIMQKKLQTLQSENSNLRKQATTNVYQVQTGSEYTDTSNHSSLKRRPSARGSRPMSMYETGSGQKPYLPMGEASRPEESRMRLQPFPAHIGRSALVTSSSSLPSFPSTLSWSRDESARRASRLEKQNSTPESDYDNTPNDMEPDGMGSSRKGRQRSMVWPGDGLVPDTAEPHVAPSPTLPSTEDVIRKTEQITKNIQELLRAAQENKHDSYIPCSERIHVAVTEMAALFPKKPKSDMVRTSLRLLTSSAYRLQSECKKTLPGDPGSPTDVQLVTQQVIQCAYDIAKAAKQLVTITTKENNN
As to B1, the binding entry in experiment [1] is given as “binds”; in experiment [2], “no binding”.
